From US20040136985A1, “Methods of modifying behavior of CD9-expressing cells” (priority 2002, published 2004)
No constants are given. Whether binding was seen depends on the method and setting. Some binding calls cover weakened binding; strength is not graded here.

By UniProt entry, the sequences of proteins in these tests, tags left out. Where a name states a change or a piece, a line headed by the entry shows the natural chain unless it says otherwise. Chains listed by the source or under a name are the forms on record and can include a tag or linker.
UniProt P21926: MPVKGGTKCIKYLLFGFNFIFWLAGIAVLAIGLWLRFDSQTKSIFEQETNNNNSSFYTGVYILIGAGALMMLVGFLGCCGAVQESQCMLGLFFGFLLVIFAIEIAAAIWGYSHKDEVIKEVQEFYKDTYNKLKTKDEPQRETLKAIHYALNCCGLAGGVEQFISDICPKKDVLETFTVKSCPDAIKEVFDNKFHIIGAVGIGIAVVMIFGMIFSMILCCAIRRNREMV
human plasma fibronectin (P02751, form named): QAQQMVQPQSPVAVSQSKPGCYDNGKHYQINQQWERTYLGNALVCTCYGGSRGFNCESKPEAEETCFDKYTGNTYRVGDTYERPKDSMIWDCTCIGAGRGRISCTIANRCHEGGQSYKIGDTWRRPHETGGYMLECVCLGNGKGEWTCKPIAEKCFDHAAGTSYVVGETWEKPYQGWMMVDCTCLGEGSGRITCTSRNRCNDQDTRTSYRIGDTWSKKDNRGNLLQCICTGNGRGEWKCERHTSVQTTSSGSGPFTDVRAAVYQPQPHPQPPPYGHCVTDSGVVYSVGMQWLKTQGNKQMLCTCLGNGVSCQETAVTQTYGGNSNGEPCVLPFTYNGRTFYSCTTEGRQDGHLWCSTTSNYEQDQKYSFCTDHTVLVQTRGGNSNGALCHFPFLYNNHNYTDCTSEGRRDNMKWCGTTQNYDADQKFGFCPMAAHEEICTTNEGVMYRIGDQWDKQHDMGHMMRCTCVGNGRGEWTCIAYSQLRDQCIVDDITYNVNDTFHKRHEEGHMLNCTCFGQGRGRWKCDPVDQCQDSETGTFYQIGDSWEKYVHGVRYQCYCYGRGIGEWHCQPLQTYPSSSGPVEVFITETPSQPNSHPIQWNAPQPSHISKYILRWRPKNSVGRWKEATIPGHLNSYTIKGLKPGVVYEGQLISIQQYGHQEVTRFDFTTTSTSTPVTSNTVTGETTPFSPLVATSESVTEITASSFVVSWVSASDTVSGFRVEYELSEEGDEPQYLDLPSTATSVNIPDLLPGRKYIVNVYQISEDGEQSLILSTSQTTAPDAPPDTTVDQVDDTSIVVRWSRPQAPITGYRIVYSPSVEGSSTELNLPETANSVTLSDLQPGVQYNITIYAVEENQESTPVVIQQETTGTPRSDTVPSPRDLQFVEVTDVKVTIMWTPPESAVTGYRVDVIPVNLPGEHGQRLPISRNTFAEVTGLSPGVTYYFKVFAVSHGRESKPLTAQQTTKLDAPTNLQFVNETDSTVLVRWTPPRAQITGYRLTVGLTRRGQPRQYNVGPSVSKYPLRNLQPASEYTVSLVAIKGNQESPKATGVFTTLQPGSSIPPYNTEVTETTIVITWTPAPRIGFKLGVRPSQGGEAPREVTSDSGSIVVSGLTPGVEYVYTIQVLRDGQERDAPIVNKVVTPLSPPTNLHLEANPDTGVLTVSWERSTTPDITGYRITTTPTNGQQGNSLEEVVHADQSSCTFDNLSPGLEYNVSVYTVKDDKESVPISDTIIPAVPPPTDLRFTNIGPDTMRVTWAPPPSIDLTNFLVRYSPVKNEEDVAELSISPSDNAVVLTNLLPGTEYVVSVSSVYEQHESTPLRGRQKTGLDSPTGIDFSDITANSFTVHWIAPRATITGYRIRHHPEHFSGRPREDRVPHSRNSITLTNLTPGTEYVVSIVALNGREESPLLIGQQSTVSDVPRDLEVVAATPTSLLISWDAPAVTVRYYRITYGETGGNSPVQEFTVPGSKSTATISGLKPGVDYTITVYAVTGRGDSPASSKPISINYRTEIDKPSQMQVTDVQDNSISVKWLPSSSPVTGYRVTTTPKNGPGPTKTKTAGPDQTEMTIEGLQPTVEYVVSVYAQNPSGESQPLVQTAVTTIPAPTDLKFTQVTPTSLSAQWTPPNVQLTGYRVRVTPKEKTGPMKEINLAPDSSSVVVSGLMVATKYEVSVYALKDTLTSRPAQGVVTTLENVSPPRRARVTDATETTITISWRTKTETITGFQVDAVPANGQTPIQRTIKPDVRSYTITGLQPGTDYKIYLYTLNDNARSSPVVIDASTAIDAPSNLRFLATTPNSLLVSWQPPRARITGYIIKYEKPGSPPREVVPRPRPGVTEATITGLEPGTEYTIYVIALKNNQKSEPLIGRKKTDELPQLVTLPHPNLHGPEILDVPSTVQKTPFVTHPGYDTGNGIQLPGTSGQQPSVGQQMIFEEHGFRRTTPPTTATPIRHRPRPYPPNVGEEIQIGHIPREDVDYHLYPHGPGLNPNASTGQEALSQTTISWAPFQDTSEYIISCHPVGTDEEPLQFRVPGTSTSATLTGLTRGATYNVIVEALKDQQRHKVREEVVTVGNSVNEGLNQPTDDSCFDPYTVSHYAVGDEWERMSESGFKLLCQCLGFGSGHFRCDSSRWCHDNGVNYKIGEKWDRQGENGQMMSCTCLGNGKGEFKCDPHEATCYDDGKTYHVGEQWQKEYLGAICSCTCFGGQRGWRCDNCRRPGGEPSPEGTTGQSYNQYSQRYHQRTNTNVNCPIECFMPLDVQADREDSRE

Assays:
[1] = target: peptide 6 (human); assay: ELISA, FN 75 µg/ml on immobilized peptide 6 (10 µM coat)
[2] = target: peptide 6 (human); assay: ELISA, immobilized peptide
[3] = target: purified platelet CD9 (human) (UniProt P21926); assay: ELISA (Examples 1-2)
[4] = target: His6-rCD9 (human) (UniProt P21926); assay: ELISA, FN 0-100 µg/ml on immobilized His6-rCD9, 2.5 mM Ca2+
[5] = target: purified platelet CD9 (human) (UniProt P21926); assay: ELISA, FN 0-100 µg/ml on immobilized purified platelet CD9, 2.5 mM Ca2+
[6] = target: purified platelet CD9 (human) (UniProt P21926); assay: ELISA, FN 75 µg/ml on immobilized CD9
[7] = target: purified platelet CD9 (human) (UniProt P21926); assay: ELISA, FN 100 µg/ml on immobilized CD9, Ca2+ varied 0-4 mM
[8] = target: purified platelet CD9 (human) (UniProt P21926); assay: ELISA
[9] = target: His6-rCD9 (human) (UniProt P21926); assay: ELISA
[10] = target: purified platelet CD9 (human) (UniProt P21926); assay: ELISA, FN on immobilized CD9
[11] = target: purified platelet CD9 (human) (UniProt P21926); assay: ELISA, FN on immobilized CD9, without Ca2+
[12] = target: human plasma fibronectin (human) (UniProt P02751); assay: SPR, FN captured by anti-FN mAbs

Measured: binding

human plasma fibronectin (from UniProt P02751 32-2296) (ligand)
binds: [1] | [2] | [3] | [4] | [5] | [6] | [7] | [8] | [9] | [10] | [11]

purified platelet CD9 (from UniProt P21926 2-228) (receptor)
binds: [12]
